The AC50 is the midpoint of the concentration-response curve, whichever way the signal moves. Read a high AC50 as activity only at high concentration.

Cell number change and AC50 data for 60 compounds are collected here from PubChem BioAssay AID2685 (National Center for Advancing Translational Sciences (NCATS), 2010).

This test is described as follows: qHTS Assay for Lipid Storage Modulators in Drosophila S3 Cells.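 As to Cell number change: cells counted by Cell Tracker Red CMTPX staining in the red channel.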 The following applies: BODIPY lipid droplet fluorescence, 18-24 h; for cell number change: measured here: cell count max response, cells fed with added oleic acid. In short, it runs like this: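 Laser-scanning cytometry quantifies lipid droplet accumulation (500–530 nm total intensity; droplet/cell object ratio) in oleic acid-fed (400 uM added) Drosophila S3 cells treated with a concentration series. 20 uM Triacsin C defined 100% inhibition.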
For orientation: Quantitative high-throughput screening tests each substance at several concentrations.

[1] abbreviates: measured here: lipid fluorescence (Fed channel) AC50, cells fed with added oleic acid.
Setting [2] is: measured here: cell number channel AC50, cells fed with added oleic acid.

SMILES strings stand for the structures. The list shows a part of the results. Further columns of the screen follow, without active or inactive calls. Most of these compounds were active or inconclusive in the main read-out, so they are no random draw. Words in brackets tell the shape of the fitted curve; partial curves, single points and poor fits give uncertain potencies.

As to `CCCCN(C(=O)/C=C/c1ccco1)c1c(N)n(CC(C)C)c(=O)[nH]c1=O`, the cell number change was -23.4%. In addition, the AC50 under setting [1] was 32.6 µM [falling, single point]. On to `Cc1ccc(OCC(=O)N2CCCCC2)c(Br)c1`, for which the cell number change was -0.337%. In addition, the AC50 under setting [1] was 0.0326 µM [falling, full curve, poor fit]. For `O=C(COC(=O)Cc1ccc(S(=O)(=O)N2CCOCC2)s1)NCc1ccc(Cl)cc1`, the AC50 under setting [1] was 2.31 µM [falling, partial curve]. As for `O=S(=O)(NC1CC1)c1ccc(S(=O)(=O)N2CCCC(c3nc(-c4cccnc4)no3)C2)cc1` (stereo not drawn), the cell number change was -25.8%. The concentration at half-maximal activity (AC50) under setting [1] is 0.651 µM [rising, full curve].

Take `CCCn1c(N)c(C(=S)NC(=O)C2CC2)c(=O)n(C)c1=O`: the cell number change is -38.7%. The AC50 under setting [2] is 0.013 µM [falling, full curve, poor fit]. Besides, the AC50 under setting [1] is 0.0164 µM [falling, full curve]. As for `Cn1c(=O)n(C)c2cc(NS(C)(=O)=O)ccc21`, the cell number change turned out to be 0.429%. Besides, the AC50 under setting [1] was 0.0731 µM [falling, full curve, poor fit]. With `O=C1C=C(c2ccc(Oc3ccccc3)cc2)C[C@@H](c2ccc(Cl)cc2)C1`, the cell number change came out at 7.63%. Besides, the concentration at half-maximal activity (AC50) under setting [2] is 0.0731 µM [falling, single point]. Regarding `Cc1ccc(NC(=O)c2ccc(Cl)c(S(=O)(=O)N3CCCCCC3)c2)nc1`, the cell number change came out at 1.02%. For the same compound, the AC50 under setting [1] was 2.59 µM [rising, single point]. Consider `[O-]/C(=C(\C(=S)NCc1ccc2c(c1)OCO2)[n+]1ccccc1)c1ccc(Cl)s1`, for which the cell number change was -10.7%. Further, the AC50 under setting [2] is 4.11 µM [rising, single point]. As for `Cc1ccccc1C(=O)Nn1cnnc1`, the cell number change stood at 3.81%. The AC50 under setting [1] is 20.6 µM [rising, single point]. Take `CN1CCN(C(=S)NC(=O)/C=C/c2ccccc2)CC1`: the cell number change is 7.4%. Also, the concentration at half-maximal activity (AC50) under setting [1] was 0.82 µM [falling, full curve]. Consider `CCN(CC)C(=O)n1cnc(-c2ccccc2)c1-c1ccccc1`, for which the cell number change is 15.5%. Further, the AC50 under setting [1] is 3.66 µM [rising, full curve].

Turning to `Cc1ccc(NC(=O)Nc2ccc3c(c2)OCO3)nc1`, the cell number change worked out at 7.09%. Moreover, the concentration at half-maximal activity (AC50) under setting [1] was 1.64 µM [rising, single point].

Turning to `Cc1ccc(C(=O)CNc2cc(C)ccc2C)cc1`, the cell number change is -15.3%. Still for that read-out and setting: the result for `CCOc1ccc(NS(=O)(=O)c2ccc(C(=O)N(C)CC(=O)Nc3ccc(OC)cc3)cc2)cc1` reads -19.6%.

Regarding `CCCCN(C)C(=O)c1cn(-c2cccc(OC)c2)c(=O)c2ccccc12`, the cell number change is -9.86%. Also, the concentration at half-maximal activity (AC50) under setting [2] was 0.259 µM [falling, full curve, poor fit]. The AC50 under setting [1] was 0.731 µM [falling, full curve, poor fit]. `O=C(Nc1cccc(S(=O)(=O)N2CCCCC2)c1)c1c2c(nc3ccccc13)CCN(Cc1ccccc1)C2`: the cell number change is -0.249%. For the same compound, under setting [1], the half-maximal activity concentration (AC50) was 29.1 µM [falling, single point].

In the case of `COc1ccc2nc(NC(=O)CCn3cccc3)sc2c1`, the cell number change was determined as 37.4%. Besides, the concentration at half-maximal activity (AC50) under setting [2] was 23.1 µM [rising, single point]. Turning to `CCNS(=O)(=O)c1c(C)cc(C)c(N(C)S(=O)(=O)c2ccccc2)c1C`, the cell number change was determined as 27.3%.

For `Cc1ccc(-n2ncc3c(=O)n(-c4ccc(C)c(C)c4)c(-c4ccco4)nc32)cc1`, the cell number change stood at 34.8%. Further, under setting [2], the AC50 is 23.1 µM [rising, single point]. For the compound `O=C(O)c1c(-c2ccccc2)c2oc3ccccc3c2[nH]c1=O`, the cell number change was -2.85%. The AC50 under setting [1] was 0.651 µM [falling, full curve]. With `COc1ccc(C[C@H](C(=O)O)N2C(=O)c3ccc(C(=O)O)cc3C2=O)cc1`, the AC50 under setting [1] was 18.4 µM [rising, partial curve, poor fit]. For `COc1ccc(N2CCN(C(=O)CCC(=O)c3cc(C)sc3C)CC2)cc1`, the cell number change is 10.9%. In addition, under setting [1], the AC50 is 18.4 µM [rising, single point]. For `CC(=O)Nc1ccc(S(=O)(=O)NCC2CCC(C(=O)NCCc3ccccc3)CC2)cc1` (stereo not drawn), the AC50 under setting [1] is 11.6 µM [falling, partial curve, poor fit]. As to `Oc1c(Br)cc(Br)cc1CNc1nccs1`, the cell number change came out at 16.2%. Take `O=C(NC1CCCc2c1cnn2-c1ccc(F)cc1F)c1csnn1` (stereo not drawn): the AC50 reads like this: under setting [2], 0.411 µM [falling, full curve]; under setting [1], 0.231 µM [falling, full curve]. Consider `CCN(CC)CCNC(=O)C12CC3CC(C)(CC(C)(C3)C1)C2`, for which the cell number change is -17.2%. Besides, the AC50 under setting [1] was 29.1 µM [falling, single point]. As to `O=C(Nc1nncs1)c1c(F)c(F)c(F)c(F)c1F`, the cell number change was -32.7%. The concentration at half-maximal activity (AC50) under setting [2] was 10.3 µM [falling, partial curve]. For the same compound, the AC50 under setting [1] is 0.82 µM [rising, full curve, poor fit]. As to `O=c1oc(CCCO)cc2ccc(C#CC3(O)CCCCC3)cc12`, the cell number change came to 6.08%. For the same compound, the AC50 under setting [2] was 1.16 µM [falling, single point]. For the same compound, the AC50 under setting [1] was 0.00517 µM [rising, full curve, poor fit]. In the case of `O=C(O)c1cc2cc(Cl)cc(Cl)c2oc1=O`, the cell number change is -37.1%. The AC50 under setting [2] was 11.6 µM [falling, single point]. Moreover, the concentration at half-maximal activity (AC50) under setting [1] is 29.1 µM [falling, partial curve]. Turning to `CCCCCCNC(=O)Cc1ccc(Br)cc1`, the cell number change stood at 9.17%. Regarding `O=C(OCC(=O)C12CC3CC(CC(C3)C1)C2)c1cnccn1`, the cell number change is -23.2%. Moreover, the half-maximal activity concentration (AC50) under setting [1] was 29.1 µM [falling, single point]. Take `CC(CC(=O)Nc1ccc(F)cc1)S(=O)(=O)c1ccc2c(c1)NC(=O)CO2` (stereo not drawn): the cell number change came to 14%. Moreover, the AC50 under setting [1] is 29.1 µM [rising, single point]. With `O=P(c1cccs1)(c1cccs1)c1cccs1`, the cell number change was -4.31%. In addition, the half-maximal activity concentration (AC50) under setting [1] is 1.64 µM [falling, partial curve, poor fit]. With `O=C(CNC(=O)c1cccnc1)N/N=C/c1cc(Br)c(O)c(Br)c1`, the cell number change was -4.23%. With `COc1ccc(OCCCC(=O)Nc2cc(Cl)ccc2-n2cncn2)cc1`, the cell number change was -96.8%. Further, the AC50 under setting [2] is 23.1 µM [falling, single point].

In the case of `Cc1cc(C)c(C#N)c(N)n1`, under setting [2], the AC50 was 0.00461 µM [falling, full curve, poor fit]. As to `COc1ccc(C(C(=O)NC2CCCCC2)N(Cc2cccs2)C(=O)Cc2c[nH]c3ccccc23)cc1` (stereo not drawn), the cell number change was -27.5%. Besides, under setting [1], the AC50 is 1.3 µM [falling, full curve, poor fit]. `O=C(CSc1nccc(=O)[nH]1)N1CCCc2ccccc21`: the cell number change is -32.9%. Also, the half-maximal activity concentration (AC50) under setting [1] is 32.6 µM [falling, partial curve, poor fit].

Turning to `N/C(=N\OC(=O)COc1ccc(Br)cc1)c1cccc([N+](=O)[O-])c1`, the half-maximal activity concentration (AC50) under setting [2] is 4.11 µM [rising, partial curve]. For `Cc1ccc(C2=Nc3ccc(Br)cc3C(c3ccncc3)=NN2)cc1`, the cell number change is -44.7%. In addition, under setting [2], the half-maximal activity concentration (AC50) is 29.1 µM [falling, single point]. Further, the concentration at half-maximal activity (AC50) under setting [1] is 20.6 µM [falling, partial curve]. On to `Cc1cc(C(=O)CN2C(=O)NC(C)(c3cccc(Br)c3)C2=O)c(C)n1Cc1ccco1` (stereo not drawn), for which the cell number change is -12%. Further, under setting [1], the concentration at half-maximal activity (AC50) was 0.13 µM [falling, full curve, poor fit].

Regarding `CCCC(C(=O)NC1CCCC1)N(C(=O)Cn1nnc(-c2ccc(C)o2)n1)c1ccccc1OC` (stereo not drawn), the cell number change was -3.4%. Still for that read-out and setting: the result for `CCOC(=O)C1CCCN(CC(O)COCc2ccccc2OC)C1` (stereo not drawn) reads -5.26%. Take `Cc1cc(-c2n[nH]c(=S)n2/N=C/C(Br)=C/c2ccccc2)n[nH]1`: the cell number change was -85.8%. Also, the AC50 under setting [2] is 13 µM [falling, partial curve]. Also, under setting [1], the AC50 was 5.17 µM [falling, full curve]. On to `Cc1c(N=N/C(C(=O)Nc2ccccc2)=C(/O)c2ccccc2)c(=O)n(-c2ccccc2)n1C`, for which the cell number change turned out to be 7.51%. Under setting [1], the concentration at half-maximal activity (AC50) is 0.731 µM [falling, single point]. Regarding `CC(=O)N(C(C)=O)N1C(=O)/C(=C/c2ccc(Cl)cc2)SC1=S`, the cell number change was -53.2%. Further, the half-maximal activity concentration (AC50) under setting [2] is 29.1 µM [falling, single point]. In addition, the AC50 under setting [1] was 23.1 µM [falling, partial curve, poor fit]. Regarding `c1ccc(-c2nc(-c3ccco3)n3ccccc23)cc1`, the cell number change was 21%. The AC50 under setting [1] was 0.517 µM [falling, full curve, poor fit].

With `Cc1ccc(NC(=O)CSC(C)C(=O)NCCc2ccccn2)cc1` (stereo not drawn), the cell number change is 23.1%. The half-maximal activity concentration (AC50) under setting [2] was 0.00517 µM [rising, full curve, poor fit]. Consider `CCOC(=O)CNC(=O)c1cc(C)oc1C`, for which, under setting [1], the concentration at half-maximal activity (AC50) is 0.82 µM [rising, single point]. With `CCCC(=O)c1cc2cc(Cl)ccc2oc1=O`, the cell number change is -3.87%. The AC50 under setting [1] is 2.31 µM [falling, full curve]. With `Cc1ccc(NC(=O)[C@H](NC(=O)[C@@H]2Cc3ccccc3CN2)c2ccccc2)cc1C`, under setting [1], the AC50 was 23.1 µM [rising, single point]. `CN(C)c1ccc(C(C(=O)NC2CCCCC2)N(Cc2ccco2)C(=O)c2snc(C(N)=O)c2N)cc1` (stereo not drawn): the cell number change turned out to be 4.58%. For the same compound, the AC50 under setting [1] was 1.16 µM [falling, single point]. In the case of `O=C1Nc2ccc(S(=O)(=O)NCCCO)c3cccc1c23`, the cell number change turned out to be 42.5%. Besides, the concentration at half-maximal activity (AC50) under setting [2] is 0.731 µM [rising, full curve]. Moreover, the half-maximal activity concentration (AC50) under setting [1] is 5.8 µM [rising, single point]. Consider `CCCCCCC(=O)Nc1ccc(C(=O)N2CCCC2)cc1`, for which the cell number change is 22.2%. Besides, under setting [2], the half-maximal activity concentration (AC50) was 0.0326 µM [falling, full curve, poor fit].

On to `c1ccc2nc(-c3nc4ccccc4[nH]3)ccc2c1`, for which the AC50 is 1.3 µM [rising, full curve] under setting [2] and 1.46 µM [rising, full curve] under setting [1]. For `N#CCCN(Cc1cccnc1)S(=O)(=O)c1ccc(S(=O)(=O)NC2CCCCC2)cc1`, the cell number change was -34.4%. For the same compound, the half-maximal activity concentration (AC50) under setting [2] is 0.291 µM [falling, full curve].

As for `COc1ccc(OC)c(/C=N/Nc2cc(C)nc(N3CCOCC3)n2)c1`, the cell number change was 6.83%. For `COc1ccc(-n2c(C)c(C(C)=O)c3cc(OC(C)=O)ccc32)cc1`, the cell number change came out at 12.5%.

For `O=S(=O)(c1ccc2ccccc2c1)N(CC(O)COCc1ccco1)c1ccccc1` (stereo not drawn), the cell number change amounted to 0.435%. Further, the AC50 under setting [2] is 0.146 µM [falling, full curve, poor fit]. Besides, the half-maximal activity concentration (AC50) under setting [1] is 0.164 µM [falling, full curve, poor fit].
